This passage reports AC50 results from PubChem BioAssay AID1487 (National Center for Advancing Translational Sciences (NCATS), 2009).

Some of the results follow. Shown are side measurements of this screen, not its main read-out; they come without a call. Compounds called inactive in the main read-out are mostly missing here. The note in brackets gives the kind of curve behind each potency; many fits are weak.

The test is described as follows: qHTS Assay for Modulators of Lamin A Splicing. Particulars: HeLa LMNA splicing GFP/RFP minigene ratio, 48 h. The gist of the method: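 S3 HeLa stable clones carrying a lamin A-EGFP splicing minigene plus DsRed2 were seeded at 600 cells/well in Opti-MEM with 2% FBS, pin-dosed and incubated 48 h at 37°C. Acumen cytometry (488 nm) gave the GFP/RFP total-intensity ratio.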
In general terms: In qHTS, concentration-response curves come from the screen itself.

The mark [1] stands for this setting: measured here: RFP viability control channel.
Setting [2] is: measured here: GFP splicing reporter channel.

What is called AC50 is the concentration giving half of the maximal activity seen. For `O=C(Nc1cc(Cl)cc(Cl)c1)c1ccc(F)c(S(=O)(=O)N2CCc3ccccc32)c1`, the half-maximal activity concentration (AC50) under setting [1] is 35.5 µM [rising, single point]. Consider `COc1ccc(CCNC(=O)c2ccc3c(c2)N(Cc2c(F)cccc2Cl)C(=O)CS3)cc1OC`, for which the AC50 under setting [2] is 0.178 µM [falling, full curve, poor fit]. Consider `O=C1CC[C@@H](CN(Cc2ccccc2)Cc2cn[nH]c2-c2cc3ccccc3o2)N1`, for which the AC50 by setting is: under setting [2], 35.5 µM [falling, single point]; under setting [1], 35.5 µM [falling, single point]. Take `CC(C)c1ccc(OCC(=O)NC(Cc2c[nH]c3ccccc23)C(=O)O)cc1` (stereo unspecified): the AC50 under setting [2] is 5.62 µM [rising, single point]. As for `CC1=NN(C(=O)c2cc(C)nn2C)C(O)(C(F)(F)F)C1` (stereo unspecified), the AC50 under setting [1] was 12.6 µM [rising, partial curve, poor fit]. For the compound `Cn1c(=O)c(-c2ccc(Cl)cc2)nc2cnc(Oc3cccc(Cl)c3)nc21`, the AC50 runs as follows: under setting [2], 11.2 µM [falling, partial curve]; under setting [1], 11.2 µM [falling, partial curve]. `N#Cc1ccc(-c2cccnc2)nc1SCc1ccc(Cl)cc1Cl`: the half-maximal activity concentration (AC50) under setting [1] is 0.891 µM [falling, full curve]. Consider `C#C[C@@]1(O)CC[C@@H]2[C@@H]3CCC4=C(CCC(=O)C4)[C@H]3CC[C@]21C`, for which the AC50 under setting [2] is 1.26 µM [rising, full curve] and the AC50 under setting [1] is 2.24 µM [rising, full curve]. With `O=C(c1cc([N+](=O)[O-])ccc1N1CCCCC1)N1CCc2ccccc21`, the AC50 under setting [1] was 7.08 µM [rising, full curve, poor fit].

On to `Cc1cccc(NC(=O)C2C3CCC4C(CCC32)C4(Cl)Cl)c1` (stereo unspecified), for which the AC50 under setting [1] is 0.141 µM [rising, full curve, poor fit]. As to `CC(C)(C)N=C1C([N+](=O)[O-])=CC=C2C1=NC1(CCCCC1)N2O`, the concentration at half-maximal activity (AC50) under setting [2] was 0.00794 µM [falling, full curve, poor fit] and the half-maximal activity concentration (AC50) under setting [1] is 5.62 µM [falling, full curve, poor fit]. In the case of `c1ccc(-c2csc3ncnc(NCCN4CCOCC4)c23)cc1`, the AC50 is 20 µM [rising, single point] under setting [2] and 31.6 µM [rising, single point] under setting [1].

Turning to `CCC(C)(C)n1nnnc1CN1CCN(c2ccc(OC)cc2)CC1`, the AC50 under setting [1] was 1.58 µM [falling, full curve, poor fit]. Still for that read-out and setting: with `O=C(NC1CC1)c1cccc(Nc2ccc(-c3ccc4c(c3)OCCO4)nn2)c1` the figure was 20 µM [rising, single point]; with `O=C(NC12CC3CC(CC(C3)C1)C2)c1ccc(-c2ccc(Br)cc2)o1`, 28.2 µM [rising, single point].

Regarding `Cc1ccc(CN(Cc2ccco2)C(=S)Nc2ccccc2C)cc1`, the half-maximal activity concentration (AC50) under setting [2] was 0.0631 µM [falling, full curve, poor fit]. With `OC(CN1CCN(c2ccccn2)CC1)Cn1c2ccc(Cl)cc2c2cc(Cl)ccc21` (stereo unspecified), the AC50 is, setting by setting: under setting [2], 35.5 µM [falling, single point]; under setting [1], 35.5 µM [falling, single point].

For `Cc1cc(N=Cc2c(O)ccc3cc(Br)ccc23)no1`, the AC50 is, setting by setting: under setting [2], 17.8 µM [rising, single point]; under setting [1], 31.6 µM [rising, single point]. For the compound `COC(=O)CN1C(=S)N(c2ccc(Cl)cc2)C(=O)C1CC(=O)Nc1ccc(Cl)cc1` (stereo unspecified), the AC50 under setting [1] was 5.62 µM [rising, partial curve].

With `COc1ccc(/C=N/Nc2ncnc3sc(C)c(C)c23)cc1`, the AC50 under setting [1] is 17.8 µM [rising, partial curve]. The same measure, in the same setting: with `COc1ccc(/C=C/C(=O)c2ccc(OC)cc2O)cc1` the figure was 12.6 µM [rising, partial curve]. For the compound `C=CCc1cccc(C2Nc3ccccc3C(=O)N2O)c1O` (stereo unspecified), the AC50 under setting [2] is 35.5 µM [falling, single point]. `COC(=O)[C@@H]1C[C@H]1[C@@H](NS(=O)(=O)c1ccccc1)c1ccccc1`: the AC50 under setting [1] was 10 µM [rising, partial curve].

Regarding `Cc1nc([N+](=O)[O-])c(Br)n1CC(=O)c1ccc2ccccc2c1`, the AC50 by setting is: under setting [2], 25.1 µM [falling, single point]; under setting [1], 35.5 µM [falling, partial curve]. Regarding `Cn1c(=O)c(C(=O)CSc2ccccc2)c(N)n(Cc2ccccc2)c1=O`, the AC50 reads like this: under setting [2], 22.4 µM [falling, partial curve, poor fit]; under setting [1], 35.5 µM [falling, single point]. `COc1ccc(CCNc2cc(C)nc3c(-c4ccc(Cl)cc4)cnn23)cc1OC`: the AC50 under setting [1] is 35.5 µM [rising, single point]. Turning to `COc1cccc(C2=C(C(C)=O)Sc3nncn3N2C(C)=O)c1`, the AC50 under setting [2] is 39.8 µM [falling, partial curve, poor fit].

As for `O=C1C=C(Nc2ccccc2O)c2ccccc2C1=O`, the AC50 is, setting by setting: under setting [2], 35.5 µM [falling, single point]; under setting [1], 35.5 µM [falling, single point]. Take `COc1ccccc1CNc1nc(-c2ccccc2OC)nc2ccccc12`: the AC50 is 11.2 µM [falling, partial curve] under setting [2] and 15.8 µM [falling, partial curve] under setting [1]. For `CCN(CC)S(=O)(=O)c1ccc(NC(=O)CSc2ncnc3ccccc23)cc1`, the AC50 under setting [1] was 11.2 µM [rising, partial curve, poor fit]. On the same count and under the same terms, the value for `CCCCc1c(C)c(C#N)c2[nH]c3ccccc3n2c1=O` was 14.1 µM [rising, partial curve]; that for `Oc1ccc(CNc2ccc(F)cc2)c2cccnc12` was 31.6 µM [rising, single point]. Take `CC(=O)Nc1ccc(NC(=O)c2ccc(NS(=O)(=O)c3cc(C(C)(C)C)cc(C)c3C)cc2)cc1`: the AC50 runs as follows: under setting [2], 8.91 µM [rising, partial curve]; under setting [1], 12.6 µM [rising, single point].

As for `COc1cccc(NC(=O)CSc2nc3ccc(NC(=O)c4cccs4)cc3s2)c1`, the AC50 under setting [2] was 0.112 µM [falling, full curve] and the AC50 under setting [1] is 0.0112 µM [falling, full curve, poor fit]. Regarding `Cc1ncc([N+](=O)[O-])n1CCO`, the AC50 under setting [2] was 1.41 µM [rising, partial curve, poor fit] and the AC50 under setting [1] is 2.51 µM [rising, single point]. For `Cc1ccccc1N1CC(C(=O)Nc2nnc(SCC(=O)Nc3nccs3)s2)CC1=O` (stereo unspecified), the AC50 under setting [2] was 15.8 µM [rising, partial curve, poor fit]. With `O=C(Nc1cccc(Br)c1)c1ccc2nc(N3C(=O)CCC3=O)sc2c1`, the AC50 runs as follows: under setting [2], 12.6 µM [falling, single point]; under setting [1], 35.5 µM [falling, single point]. Turning to `COc1ccc(NC(=S)NCCc2ccc(Cl)cc2)c(OC)c1`, the AC50 runs as follows: under setting [2], 31.6 µM [rising, single point]; under setting [1], 35.5 µM [rising, single point]. Take `COC(=O)C(C)(C)ONC(=O)Nc1ccccc1Br`: under setting [2], the half-maximal activity concentration (AC50) was 4.47 µM [rising, full curve, poor fit].

Take `O=C(NNC(=O)c1ccccc1Br)c1cccc(Cl)c1`: the concentration at half-maximal activity (AC50) under setting [2] is 31.6 µM [rising, single point].

As to `Cc1ccc(NS(=O)(=O)c2ccc(Cl)c(C(=O)Nc3ccccc3-c3nc4ccccc4[nH]3)c2)cc1C`, the AC50 was 17.8 µM [rising, single point] under setting [2] and 22.4 µM [rising, partial curve] under setting [1]. Turning to `COc1cccc(-c2cc(C(=O)Nc3c(C)nn(Cc4ccccc4C)c3C)no2)c1`, the concentration at half-maximal activity (AC50) is 11.2 µM [rising, single point] under setting [2] and 15.8 µM [rising, single point] under setting [1]. For `CCOC(=O)C1(Cc2ccccc2C(F)(F)F)CCN(C(=O)c2cc(C)n(C)n2)CC1`, under setting [1], the AC50 was 22.4 µM [falling, single point].

Take `Nc1ccc(C(=O)N/N=C\C=C\c2ccc([N+](=O)[O-])cc2)cc1`: the AC50 under setting [2] is 22.4 µM [rising, partial curve, poor fit]. The same measure, in the same setting: with `Cc1ccc(-n2ncc(C(=O)NCCN3CCCC3)c2C2CCN(C(=O)OC(C)(C)C)CC2)cc1C` the figure was 35.5 µM [falling, single point]. For `CCOC(=O)c1c(CSC(=N)N)n(-c2ccc(Br)cc2)c2cc(Br)c(OC(C)=O)cc12`, the concentration at half-maximal activity (AC50) is 22.4 µM [falling, single point] under setting [2] and 22.4 µM [falling, partial curve, poor fit] under setting [1]. As to `CCn1cc(C(=O)O)c(=O)c2cc(F)c(N/N=C/c3ccccc3)cc21`, under setting [1], the AC50 is 12.6 µM [rising, partial curve]. The same measure, in the same setting: the value for `COc1ccc(C(=O)Cc2ccc(OC)c(OC)c2)c(OC)c1` was 14.1 µM [rising, single point]. In the case of `Cc1occc1C(=O)N/N=C/C(Br)=C/c1ccccc1`, the AC50 under setting [2] was 31.6 µM [falling, partial curve, poor fit]. With `CN(C)CCCNc1c2c(c(C#N)c3nc4ccccc4n13)CCC2`, the AC50 is, setting by setting: under setting [2], 10 µM [rising, partial curve, poor fit]; under setting [1], 12.6 µM [rising, single point]. `COc1ccc(-c2n[nH]c(=S)n2/N=C/C=C/c2ccccc2OC)cc1`: the AC50 under setting [1] is 3.16 µM [rising, single point]. `CCOC(=O)c1[nH]c2ccc(OC)cc2c1NC(=O)CCN1CCSCC1`: the AC50 is 10 µM [rising, single point] under setting [2] and 8.91 µM [rising, partial curve] under setting [1]. With `Cc1ccc(-c2cn(-c3ccc(SC(F)F)cc3)c3[n+]2CCC3)cc1`, the AC50 under setting [1] was 5.01 µM [rising, full curve, poor fit]. Turning to `CCOC(=O)N1CCN(C(=O)c2cc(COc3ccc4ncccc4c3)on2)CC1`, the AC50 under setting [2] is 1.41 µM [falling, full curve, poor fit] and the AC50 under setting [1] is 1.26 µM [falling, full curve].
